# Laboratory results: article PMC5996148
# This is one part of the list. For some of these results: Construct or isoform of the protein are uncertain.
# Legend:
# Test in all cases: protein microarray (ProtoArray v5.0), streptavidin-Alexa Fluor 647
# Settings in all cases: 3'-biotin; 20 mM Tris (pH 7.5), 5 mM MgCl2, 100 mM KCl, 0.1% Tween-20, A/T-rich and random oligonucleotide blockers; temperature not stated; high values mean tight binding
# CCDC23 = biological target: T1, CCDC23 (UniProt Q8N300)
# T1 sequence: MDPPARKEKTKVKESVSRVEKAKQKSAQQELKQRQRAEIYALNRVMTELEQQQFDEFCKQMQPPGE
# CCDC28A (human) = test system: CCDC28A (human)
# CCDC32 (human) = test system: CCDC32 (human)
# CCDC40 (human) = test system: CCDC40 (human)
# CCDC5 (human) = test system: CCDC5 (human)
# CCDC53 (human) = test system: CCDC53 (human)
# CCDC75 (human) = test system: CCDC75 (human)
# CCDC78 (human) = test system: CCDC78 (human)
# CCDC83 (human) = test system: CCDC83 (human)
# CCDC91 (human) = test system: CCDC91 (human)
sequence,measurement,setting,value
GGGAGGCTGAGGCAGG [G4-1 biotinylated (PQS2)],binding signal,CCDC23,3.6 z-score
same,binding signal,CCDC28A (human),-0.318 z-score
same,binding signal,CCDC32 (human),-0.378 z-score
same,binding signal,CCDC40 (human),-0.353 z-score
same,binding signal,CCDC5 (human),-0.327 z-score
same,binding signal,CCDC53 (human),-0.324 z-score
same,binding signal,CCDC75 (human),-0.343 z-score
same,binding signal,CCDC78 (human),-0.246 z-score
same,binding signal,CCDC83 (human),-0.331 z-score
same,binding signal,CCDC91 (human),-0.317 z-score
